{"source": "patent US4013791A", "about": "“Peptides having an antihypertensive effect” (Hoechst Aktiengesellschaft, priority 1974, dated 1977)", "key": {"[1]": {"system": "angiotensin II (AT II)", "assay": "Potency of AT II analogs: inhibition of the increase in blood pressure caused by AT II, with and without infusion of the analog", "assay_type": "in vivo", "conditions": "compared with the figures for [Suc^1,Val^5,Pgl^8] AT II", "description": "(§1) The potency of the AT II analogs is determined by measuring the increase in blood pressure caused by increasing amounts of AT II with and without infusion of the analog to be tested, at different dosages; duration of action is determined on the basis of the time during which a single injection of the analog to be tested is effective under permanent infusion of AT II."}, "[2]": {"system": "angiotensin II (AT II)", "assay": "Duration of action of a single injection of the analog under permanent infusion of AT II", "assay_type": "in vivo", "conditions": "compared with the figures for [Suc^1,Val^5,Pgl^8] AT II", "description": "as §1"}}, "note": "At least one peptide structure holds a part that was inferred or is arguable (an end, a ring closure or a residue).", "data": [{"smiles": "CNCC(=O)N[C@@H](CCCNC(=N)N)C(=O)N[C@H](C(=O)N[C@@H](Cc1ccc(O)cc1)C(=O)N[C@H](C(=O)N[C@@H](Cc1c[nH]cn1)C(=O)N1CCC[C@H]1C(=O)N[C@H](C(=O)O)c1ccccc1)C(C)C)C(C)C", "note": "[[Sar^1, Val^5, Pgl^8]AT II, H--Sar--Arg--Val--Tyr--Val--His--Pro--Phegly--OH]", "values": [{"measurement": "Potency (in words, compared with the Suc^1 analog)", "setting": "[1]", "value": "within the range of the figures for the Suc^1 - analog"}, {"measurement": "Duration of action (in words, compared with the Suc^1 analog)", "setting": "[2]", "value": "within the range of the figures for the Suc^1 - analog"}]}]}
